{
  "source": "patent US7951772B2",
  "about": "“Tumor-activated prodrug compounds and treatment” (La Region Wallonne, priority 1994, dated 2011)",
  "key": {"[1]": {"system": "conditioned medium from MCF7/6 mammary carcinoma cells", "test": "Degradation in conditioned medium from MCF7/6 mammary carcinoma cells (HPLC)", "conditions": "Hydrolysis to L-Leu-DNR"}, "[2]": {"test": "Degradation in human blood at 37 C", "conditions": "Hydrolysis to L-Leu-DNR"}},
  "note": "For at least one compound, name, drawing or mass did not settle the structure.",
  "data": [
    {"smiles": "COc1cccc2c1C(=O)c1c(O)c3c(c(O)c1C2=O)C[C@@](O)(C(C)=O)C[C@@H]3O[C@H]1C[C@H](NC(=O)[C@H](CC(C)C)NC(=O)[C@H](C)NC(=O)[C@H](CC(C)C)NC(=O)CCN)[C@H](O)[C@H](C)O1", "note": "[β-Ala-Leu-Ala-Leu-DNR, β-alanyl-L-leucyl-L-alanyl-L-leucyldaunorubicin]", "values": [
      {"measurement": "Hydrolysis, MCF-7/6 Conditioned Medium", "setting": "[1]", "value": "+"},
      {"measurement": "Hydrolysis, Human Blood", "setting": "[2]", "value": "−"}
    ]}
  ]
}
